# At least one compound was matched to its structure with a doubt left.
# The chains behind the UniProt entries cited, without tags or fusion partners. Where a name states a change or a piece, a line headed by the entry shows the natural chain unless it says otherwise.
# UniProt Q01726: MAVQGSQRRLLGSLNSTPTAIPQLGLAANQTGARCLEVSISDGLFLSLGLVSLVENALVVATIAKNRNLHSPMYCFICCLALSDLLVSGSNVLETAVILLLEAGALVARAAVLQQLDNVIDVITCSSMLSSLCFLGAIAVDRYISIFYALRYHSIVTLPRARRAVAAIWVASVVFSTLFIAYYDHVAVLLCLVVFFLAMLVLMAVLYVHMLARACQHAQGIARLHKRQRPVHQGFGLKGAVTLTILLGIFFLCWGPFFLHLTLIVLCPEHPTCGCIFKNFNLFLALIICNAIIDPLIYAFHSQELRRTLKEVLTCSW
# What was measured:
# human MC1R = biological target: T1, human MC1R (Homo sapiens, UniProt Q01726); experiment: Competitive binding assay with 125I labelled NDP-α-MSH on whole cells, MC1R; conditions: within micromolar range concentration
# T1 construct: expressed in transfected cells; host or cells: HEK293 (stably transfected)
# melanoma = experiment: Case 3: patient with stage II melanoma; format: in vivo, human; conditions: surgery plus 100 mg tablet daily, after 6 months
compound,measurement,setting,value
CCCC[C@H](NC(=O)CCCCCNC(=O)[C@@H](N)CSSCCOC(=O)O[C@]1(CC)C(=O)OCc2c1cc1n(c2=O)Cc2cc3ccccc3nc2-1)C(=O)N[C@H]1CC(=O)NCCCC[C@@H](C(N)=O)NC(=O)[C@H](Cc2c[nH]c3ccccc23)NC(=O)[C@H](CCCNC(=N)N)NC(=O)[C@@H](Cc2ccccc2)NC(=O)[C@H](Cc2c[nH]cn2)NC1=O [CPT-MT-II (1)],displacement of NDP-α-MSH from MC1R,human MC1R,fully displace
same,displacement of NDP-α-MSH from MC1R,human MC1R; listed as CPT-MT-II,fully displace NDP-α-MSH
same,disease outcome,melanoma,in remission

# Source: patent US12440570B2, “Conjugation of MCR1 ligand with cytotoxic drugs for treating skin cancer” (ARIZONA BOARD OF REGENTS ON BEHALF OF THE UNIVERSITY OF …, priority 2019, dated 2025)
